Measurements reported in the supplement of paper PMC6078165.
The reference is the same well before dosing, and untreated signal decays as well.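 Fibroblast labels denote human fibroblasts, mainly primary ones from uterus (C12385, HUF), lung (H6013), bone (Hs27A), adrenal (HADF) and skin (WS1), plus mammary HMF and breast cancer-associated Hs343T. Cancer cells are basal-like or mesenchymal-like triple-negative breast cancer lines. A hit is a response shift exceeding 3x replicate standard deviation. The tissue of the other fibroblasts is not given here.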

Tested on: MDAMB436
Assay: relative JC-1 red fluorescence (viability) vs pre-drug, coculture with fibroblast (fraction); higher = more viable cancer cells
Conditions: 10 µM
Protocol: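 JC-1 labelled TNBC cells cocultured 1:1 (1,500 cells each) with CellTrace Violet stained primary or stromal fibroblasts in 384-well plates in FluoroBrite medium, treated with one of 42 anticancer drugs at 0.1, 1, 10 or 100 uM. JC-1 red fluorescence (mitochondrial integrity in cancer cells only) was read by plate reader every 8 h for 72 h. Values are normalised to each well's pre-drug value. The stock of one drug was tenfold lower, so its dose labels may be too high.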

Nc1ccn([C@@H]2O[C@H](CO)[C@@H](O)C2(F)F)c(=O)n1 [Gemcitabine]
relative JC-1 red fluorescence
Conditions | 8 h | 16 h | 24 h | 32 h | 40 h | 48 h | 56 h | 64 h | 72 h
coculture fibroblast: C12385 | 0.8056 | 0.701 | 0.665 | 0.576 | 0.531 | 0.501 | 0.476 | 0.452 | 0.44
coculture fibroblast: H6013 | 0.7987 | 0.728 | 0.736 | 0.742 | 0.747 | 0.784 | 0.763 | 0.772 | 0.751
coculture fibroblast: H6019 | 0.7361 | 0.671 | 0.623 | 0.537 | 0.493 | 0.468 | 0.445 | 0.431 | 0.429
coculture fibroblast: H6076 | 0.68 | 0.559 | 0.54 | 0.4974 | 0.483 | 0.452 | 0.452 | 0.446 | 0.441
coculture fibroblast: H6231 | 0.763 | 0.671 | 0.596 | 0.537 | 0.508 | 0.477 | 0.462 | 0.45 | 0.441
coculture fibroblast: HADF | 0.813 | 0.717 | 0.706 | 0.6861 | 0.666 | 0.696 | 0.639 | 0.628 | 0.591
coculture fibroblast: HCFa | 0.7583 | 0.677 | 0.636 | 0.613 | 0.581 | 0.601 | 0.539 | 0.524 | 0.481
coculture fibroblast: HCPF | 0.745 | 0.597 | 0.575 | 0.516 | 0.491 | 0.455 | 0.423 | 0.411 | 0.394
coculture fibroblast: HHSteC | 0.855 | 0.795 | 0.801 | 0.79 | 0.798 | 0.831 | 0.782 | 0.779 | 0.741
coculture fibroblast: HMF | 0.747 | 0.57 | 0.551 | 0.508 | 0.494 | 0.4654 | 0.4684 | 0.461 | 0.4575
coculture fibroblast: HPFa | 0.83711 | 0.765 | 0.752 | 0.732 | 0.738 | 0.773 | 0.718 | 0.721 | 0.674
coculture fibroblast: HUF | 0.844 | 0.711 | 0.687 | 0.613 | 0.566 | 0.54 | 0.513 | 0.5 | 0.49
coculture fibroblast: Hs5 | 0.842 | 0.69 | 0.697 | 0.652 | 0.629 | 0.592 | 0.606 | 0.565 | 0.569
coculture fibroblast: Hs27A | 0.856 | 0.783 | 0.75 | 0.724 | 0.695 | 0.751 | 0.695 | 0.6933 | 0.64115
coculture fibroblast: Hs343T | 0.739 | 0.598 | 0.579 | 0.531 | 0.525 | 0.495 | 0.499 | 0.496 | 0.495
coculture fibroblast: WS1 | 0.79424 | 0.685 | 0.642 | 0.552 | 0.516 | 0.49 | 0.465 | 0.445 | 0.435
